The target of this experiment is MLH1^516-650 fragment, Flag-tagged (UniProt P40692). Description: affinity purification with mass spectrometry; HEK-293T expressing Flag-tagged MLH1 516-650, MG132 10 uM for 4 h; lysate on anti-Flag beads overnight at 4 °C; HPLC-coupled tandem mass spectrometry.

Amino acid sequences for entries named in this document (tags omitted). Residues count along the entry.
UniProt P40692, residues 516-650: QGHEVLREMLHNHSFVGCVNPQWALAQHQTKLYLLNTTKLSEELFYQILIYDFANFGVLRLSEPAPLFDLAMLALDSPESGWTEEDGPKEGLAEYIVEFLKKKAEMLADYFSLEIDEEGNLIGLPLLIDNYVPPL
UniProt Q7Z6Z7: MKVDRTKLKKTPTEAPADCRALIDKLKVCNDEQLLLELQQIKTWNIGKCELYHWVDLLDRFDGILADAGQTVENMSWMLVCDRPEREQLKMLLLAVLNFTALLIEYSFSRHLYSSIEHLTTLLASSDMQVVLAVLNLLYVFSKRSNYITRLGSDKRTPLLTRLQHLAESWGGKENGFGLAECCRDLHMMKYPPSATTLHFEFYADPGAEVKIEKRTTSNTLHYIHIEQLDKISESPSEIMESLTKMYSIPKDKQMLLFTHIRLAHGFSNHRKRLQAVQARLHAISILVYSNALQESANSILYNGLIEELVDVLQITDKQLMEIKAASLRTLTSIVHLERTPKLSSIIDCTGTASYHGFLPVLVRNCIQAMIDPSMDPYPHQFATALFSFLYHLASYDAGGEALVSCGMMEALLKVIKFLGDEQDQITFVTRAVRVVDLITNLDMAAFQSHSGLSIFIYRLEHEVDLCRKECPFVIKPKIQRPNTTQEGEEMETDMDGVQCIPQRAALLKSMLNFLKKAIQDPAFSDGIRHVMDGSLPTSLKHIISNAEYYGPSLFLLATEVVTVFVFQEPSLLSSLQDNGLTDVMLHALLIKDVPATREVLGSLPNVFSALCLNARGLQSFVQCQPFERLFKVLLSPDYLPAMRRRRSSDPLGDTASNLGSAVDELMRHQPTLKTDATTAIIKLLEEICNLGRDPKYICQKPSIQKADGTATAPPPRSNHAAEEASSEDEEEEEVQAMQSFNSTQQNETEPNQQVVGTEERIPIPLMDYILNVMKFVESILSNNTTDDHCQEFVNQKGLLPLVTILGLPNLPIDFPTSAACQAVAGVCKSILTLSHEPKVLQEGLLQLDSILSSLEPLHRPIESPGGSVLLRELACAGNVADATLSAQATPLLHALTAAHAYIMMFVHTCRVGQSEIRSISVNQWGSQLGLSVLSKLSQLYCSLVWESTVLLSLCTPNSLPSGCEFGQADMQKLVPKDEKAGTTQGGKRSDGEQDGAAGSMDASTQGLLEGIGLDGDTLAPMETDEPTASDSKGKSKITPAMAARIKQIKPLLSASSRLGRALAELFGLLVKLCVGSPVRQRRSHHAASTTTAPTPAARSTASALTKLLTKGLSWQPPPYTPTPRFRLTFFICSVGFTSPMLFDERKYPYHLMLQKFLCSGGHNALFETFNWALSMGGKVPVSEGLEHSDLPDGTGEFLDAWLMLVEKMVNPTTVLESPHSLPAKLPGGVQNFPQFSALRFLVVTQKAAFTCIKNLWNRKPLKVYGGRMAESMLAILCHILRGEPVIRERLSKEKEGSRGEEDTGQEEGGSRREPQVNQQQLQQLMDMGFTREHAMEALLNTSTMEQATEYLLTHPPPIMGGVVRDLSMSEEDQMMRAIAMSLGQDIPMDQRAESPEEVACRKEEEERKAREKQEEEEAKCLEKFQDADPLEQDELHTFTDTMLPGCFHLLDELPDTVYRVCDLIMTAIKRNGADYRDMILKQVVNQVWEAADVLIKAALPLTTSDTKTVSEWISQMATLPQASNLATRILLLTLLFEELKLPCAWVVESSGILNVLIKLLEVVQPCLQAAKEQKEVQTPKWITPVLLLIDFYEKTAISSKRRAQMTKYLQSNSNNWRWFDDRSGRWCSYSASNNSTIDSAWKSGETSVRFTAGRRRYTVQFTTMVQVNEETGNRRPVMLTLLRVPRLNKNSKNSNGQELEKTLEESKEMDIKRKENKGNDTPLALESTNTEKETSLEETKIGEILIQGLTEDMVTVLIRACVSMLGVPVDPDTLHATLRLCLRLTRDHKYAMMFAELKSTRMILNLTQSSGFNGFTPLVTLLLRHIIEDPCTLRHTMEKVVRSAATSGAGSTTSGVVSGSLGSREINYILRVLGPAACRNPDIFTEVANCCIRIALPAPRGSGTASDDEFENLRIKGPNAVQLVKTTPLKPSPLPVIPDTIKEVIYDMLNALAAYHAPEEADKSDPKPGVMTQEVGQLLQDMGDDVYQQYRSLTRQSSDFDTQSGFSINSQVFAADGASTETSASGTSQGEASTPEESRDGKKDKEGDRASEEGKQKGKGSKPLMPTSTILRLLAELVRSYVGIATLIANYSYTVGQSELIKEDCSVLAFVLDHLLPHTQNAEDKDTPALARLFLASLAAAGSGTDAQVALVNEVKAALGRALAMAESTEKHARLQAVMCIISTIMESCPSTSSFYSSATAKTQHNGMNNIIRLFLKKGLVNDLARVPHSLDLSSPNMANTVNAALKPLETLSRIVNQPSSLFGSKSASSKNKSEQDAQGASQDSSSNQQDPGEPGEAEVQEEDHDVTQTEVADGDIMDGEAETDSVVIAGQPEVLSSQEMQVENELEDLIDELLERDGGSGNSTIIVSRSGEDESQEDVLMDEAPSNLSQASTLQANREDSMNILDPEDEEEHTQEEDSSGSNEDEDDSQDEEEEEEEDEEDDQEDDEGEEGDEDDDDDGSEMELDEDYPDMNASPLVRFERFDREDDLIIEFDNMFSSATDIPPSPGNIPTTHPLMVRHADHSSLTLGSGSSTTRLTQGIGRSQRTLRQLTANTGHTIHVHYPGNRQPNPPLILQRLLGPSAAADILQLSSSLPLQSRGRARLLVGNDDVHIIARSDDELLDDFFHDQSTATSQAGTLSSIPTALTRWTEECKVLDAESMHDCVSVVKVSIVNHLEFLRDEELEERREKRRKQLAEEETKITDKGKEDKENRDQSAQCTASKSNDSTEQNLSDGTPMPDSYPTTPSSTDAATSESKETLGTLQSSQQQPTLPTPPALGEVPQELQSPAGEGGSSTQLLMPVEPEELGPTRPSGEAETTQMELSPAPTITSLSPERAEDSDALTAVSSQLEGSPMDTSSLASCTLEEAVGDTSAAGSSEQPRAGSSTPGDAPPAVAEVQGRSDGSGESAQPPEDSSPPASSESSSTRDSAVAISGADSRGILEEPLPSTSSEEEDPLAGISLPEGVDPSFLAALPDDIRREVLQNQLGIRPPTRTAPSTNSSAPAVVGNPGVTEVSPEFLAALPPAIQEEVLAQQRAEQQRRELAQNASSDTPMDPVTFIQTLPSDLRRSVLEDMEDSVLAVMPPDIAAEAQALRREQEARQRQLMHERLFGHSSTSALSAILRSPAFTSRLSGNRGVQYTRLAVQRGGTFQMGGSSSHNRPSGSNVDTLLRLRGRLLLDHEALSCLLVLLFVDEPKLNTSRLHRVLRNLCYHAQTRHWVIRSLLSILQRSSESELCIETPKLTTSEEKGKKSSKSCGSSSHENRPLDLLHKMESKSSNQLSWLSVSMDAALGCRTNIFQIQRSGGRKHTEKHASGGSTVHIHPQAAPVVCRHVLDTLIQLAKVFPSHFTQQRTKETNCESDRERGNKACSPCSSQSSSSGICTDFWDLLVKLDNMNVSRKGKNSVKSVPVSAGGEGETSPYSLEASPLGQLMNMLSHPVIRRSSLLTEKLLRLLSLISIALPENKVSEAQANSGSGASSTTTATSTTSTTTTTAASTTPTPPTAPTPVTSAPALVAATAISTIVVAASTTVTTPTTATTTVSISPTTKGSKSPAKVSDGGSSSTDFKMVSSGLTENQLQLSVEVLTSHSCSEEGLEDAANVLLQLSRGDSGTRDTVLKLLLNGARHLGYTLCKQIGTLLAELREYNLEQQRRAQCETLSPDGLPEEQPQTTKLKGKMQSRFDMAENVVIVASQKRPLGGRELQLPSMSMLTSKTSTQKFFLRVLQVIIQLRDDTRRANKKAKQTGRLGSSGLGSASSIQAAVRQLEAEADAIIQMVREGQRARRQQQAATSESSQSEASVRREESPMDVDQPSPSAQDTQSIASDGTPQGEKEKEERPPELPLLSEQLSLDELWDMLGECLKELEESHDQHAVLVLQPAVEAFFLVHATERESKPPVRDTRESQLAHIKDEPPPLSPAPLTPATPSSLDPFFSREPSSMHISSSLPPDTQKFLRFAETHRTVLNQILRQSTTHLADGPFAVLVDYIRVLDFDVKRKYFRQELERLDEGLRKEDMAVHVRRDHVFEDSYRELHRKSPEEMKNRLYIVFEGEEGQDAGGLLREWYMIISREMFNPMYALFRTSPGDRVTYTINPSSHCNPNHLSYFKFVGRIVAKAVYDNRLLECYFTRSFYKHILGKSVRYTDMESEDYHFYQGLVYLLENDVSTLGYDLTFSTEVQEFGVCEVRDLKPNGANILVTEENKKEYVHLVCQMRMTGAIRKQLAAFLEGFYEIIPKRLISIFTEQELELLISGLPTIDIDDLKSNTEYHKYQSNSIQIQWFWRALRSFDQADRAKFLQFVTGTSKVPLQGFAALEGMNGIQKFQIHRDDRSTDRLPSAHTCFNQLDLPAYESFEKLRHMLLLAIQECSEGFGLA
UniProt Q05086: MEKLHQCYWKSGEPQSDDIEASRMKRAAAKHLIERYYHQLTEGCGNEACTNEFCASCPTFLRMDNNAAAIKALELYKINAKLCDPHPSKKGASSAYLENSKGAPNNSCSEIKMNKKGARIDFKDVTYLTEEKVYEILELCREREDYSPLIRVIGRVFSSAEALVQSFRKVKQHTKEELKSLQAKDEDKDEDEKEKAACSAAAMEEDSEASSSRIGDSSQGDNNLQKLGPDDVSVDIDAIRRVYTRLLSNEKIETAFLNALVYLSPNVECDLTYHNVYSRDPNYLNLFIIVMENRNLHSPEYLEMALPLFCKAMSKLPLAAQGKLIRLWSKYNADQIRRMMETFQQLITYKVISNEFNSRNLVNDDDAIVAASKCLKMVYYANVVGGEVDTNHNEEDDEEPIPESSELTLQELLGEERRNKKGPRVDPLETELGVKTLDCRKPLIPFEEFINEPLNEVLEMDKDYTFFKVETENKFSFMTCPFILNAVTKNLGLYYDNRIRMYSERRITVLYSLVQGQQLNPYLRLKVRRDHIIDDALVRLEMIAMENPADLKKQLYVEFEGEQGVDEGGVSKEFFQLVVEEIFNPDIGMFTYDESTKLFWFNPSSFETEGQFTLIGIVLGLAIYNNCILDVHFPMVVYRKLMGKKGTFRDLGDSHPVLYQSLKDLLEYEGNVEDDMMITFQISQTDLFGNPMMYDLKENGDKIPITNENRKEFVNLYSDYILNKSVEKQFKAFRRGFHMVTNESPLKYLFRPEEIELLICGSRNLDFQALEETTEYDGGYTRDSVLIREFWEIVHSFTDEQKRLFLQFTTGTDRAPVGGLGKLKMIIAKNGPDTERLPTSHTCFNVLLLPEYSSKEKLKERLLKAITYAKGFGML

Results are given in words; binding and its absence hold for the method and conditions named. Binding seen in cells or lysates may run through a third protein. These calls come from enrichment with a bait or labelling near it, and not all partners need be listed.

Regarding “HUWE1 (from UniProt Q7Z6Z7 1-4374) (enzyme)”, the binding result is listed as “binds”.
For the substance “UBE3A (from UniProt Q05086 1-875) (enzyme)”, the binding result was “binds”.

For the origin of these results see paper PMC11375253.
